Values of other authors as cited in patent US4115541A (priority 1975, dated 1978).
At least one compound was matched to its structure with a doubt left.

Conditions: cited from earlier work

[99Tc] [technitium-99m]
external photon yield: 90% | monoenergetic gamma emission: 140 KeV
